Inconclusive means that the source gave no clear call. Such entries were picked first, then a sample of the others. A potency beside an inconclusive call is a rough fit, not a confirmed value. Active and inactive are the calls of the source. Calls come from the whole dose curve; as a rule, active = well fitted inhibition curve with a large enough effect; inconclusive = small, poorly fitted or top-dose-only effect; inactive = no such curve, though single readings can be large or run the other way.
Experiment: Confirmation assay for measurement of the activity of small molecule inhibitors on Zika virus induced Caspase-3 activity in human astrocytoma cells
Details: SNB-19 ZIKV-induced caspase-3/7, luminescence, 6 h
From the text: National Center for Advancing Translational Sciences [NCATS] Johns Hopkins University School of Medicine Florida State University Assay Overview: Increase in the Caspase-3 activity indicates an activation of apoptosis cell death pathway caused by Zika virus infection in certain types of neuronal cells including human neural progenitor cells (hNPCs), astrocytes, and astrocytoma cell line (SNB-19). This cell-based caspase-3 activity assay measures the increased caspase-3 activity in the astrocytoma cell line (SNB-19) after a 6-hour Zika virus infection with a luminescence readout. A decrease in the luminescence signal in this assay by small molecule treatment indicates an inhibitory effect of that small molecule on the Zika virus induced caspase-3 activity that may correlate with its effect on reduction of Zika virus caused cell death.
Assay Protocol Summary: The medium for SNB-19 cells is composed of RPMI 1640 (ATCC, Cat.# 30-2001), 10% fetal bovine serum (FBS) (GE healthcare Life Sciences, Cat.# SH30071.03), and 1% Pen/Strep (Gibco, Cat.# 15140-122). A Caspase-Glo 3/7 assay kit (catalog number G8092; Promega, Madison, WI) was used to detect caspase-3 activity induced by Zika virus infection in human cells. The reagent mixture was reconstituted as described in the protocol from the manufacturer. Polystyrene tissue culture treated and PDL coated white plates were obtained from Greiner Bio-One (Monroe, NC). Cells were seeded in 384- or 1536-well assay plates and cultured at 37 C with 5% CO2 for 16 to 20 hours. The typical cell seeding density in the 1536-well plate assay is 250 cells/well in 3ul medium for SNB-19 cells in tissue culture treated plates. Compounds were added to cells and incubated for one hour before addition of ZIKV solution to cells (2 FFU/cell). After incubation at 37 C with 5% CO2 for 6 hours, the reagent mixture of Caspase-Glo 3/7 assay kit was added to each well, followed by incubation at room temperature for 30 minutes. The luminescence intensity of the assay plates was measured using a ViewLux plate reader (PerkinElmer). Data were normalized by using the cell-containing wells without ZIKV as a negative control (0% induction of caspase 3/7 activity) and wells containing ZIKV infected cells (Caspase-3 activity induced) as a positive control (100% induction of caspase 3 activity). The percentage inhibitions of the increased Caspase-3 activity by small molecule inhibitors were then calculated.

SMILES | Potency
CN1CC[C@@]2(C)c3cc(OC(=O)Nc4ccccc4)ccc3N(C)[C@@H]12 | inconclusive: 19.5 µM [inhibitor, single point]
Cc1ccc([N+](=O)[O-])[c]2c1[O][Hg]2 | active: 10.9 µM
CC[n+]1c(-c2ccccc2)c2cc(N)ccc2c2ccc(N)cc21 | inconclusive: 3.88 µM [inhibitor, full curve, poor fit]
COc1cccc2c1C(=O)c1c(O)c3c(c(O)c1C2=O)C[C@@](O)(C(=O)CO)CC3OC1CC(N2CCOC(OC)C2)C(O)C(C)O1 (some centres undefined) | inconclusive: 30.8 µM [inhibitor, single point]
